Results on one sequence are retold here after PMC7822688, “W196 and the β-Hairpin Motif Modulate the Redox Switch of Conformation and the Biomolecular Interaction Network of the Apoptosis-Inducing Factor” (Oxidative Medicine and Cellular Longevity, 2021).

By UniProt entry, the sequences of proteins in these tests, tags left out. Residues count along the entry.
UniProt O95831, 102-613 W196A: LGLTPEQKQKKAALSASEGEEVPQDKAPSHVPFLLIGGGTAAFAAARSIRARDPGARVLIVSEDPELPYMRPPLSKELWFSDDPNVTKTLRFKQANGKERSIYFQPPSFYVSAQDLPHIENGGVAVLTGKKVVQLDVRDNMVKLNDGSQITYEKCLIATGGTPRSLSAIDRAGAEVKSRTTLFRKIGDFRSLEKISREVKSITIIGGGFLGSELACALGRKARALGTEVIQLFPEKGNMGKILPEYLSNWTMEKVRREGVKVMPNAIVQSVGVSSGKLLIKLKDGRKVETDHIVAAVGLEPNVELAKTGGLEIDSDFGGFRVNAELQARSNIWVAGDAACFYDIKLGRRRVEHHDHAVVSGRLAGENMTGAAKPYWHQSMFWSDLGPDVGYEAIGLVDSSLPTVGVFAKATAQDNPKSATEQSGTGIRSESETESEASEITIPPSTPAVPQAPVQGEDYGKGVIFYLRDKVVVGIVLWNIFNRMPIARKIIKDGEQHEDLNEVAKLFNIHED
UniProt O95831, 102-613 W196Y: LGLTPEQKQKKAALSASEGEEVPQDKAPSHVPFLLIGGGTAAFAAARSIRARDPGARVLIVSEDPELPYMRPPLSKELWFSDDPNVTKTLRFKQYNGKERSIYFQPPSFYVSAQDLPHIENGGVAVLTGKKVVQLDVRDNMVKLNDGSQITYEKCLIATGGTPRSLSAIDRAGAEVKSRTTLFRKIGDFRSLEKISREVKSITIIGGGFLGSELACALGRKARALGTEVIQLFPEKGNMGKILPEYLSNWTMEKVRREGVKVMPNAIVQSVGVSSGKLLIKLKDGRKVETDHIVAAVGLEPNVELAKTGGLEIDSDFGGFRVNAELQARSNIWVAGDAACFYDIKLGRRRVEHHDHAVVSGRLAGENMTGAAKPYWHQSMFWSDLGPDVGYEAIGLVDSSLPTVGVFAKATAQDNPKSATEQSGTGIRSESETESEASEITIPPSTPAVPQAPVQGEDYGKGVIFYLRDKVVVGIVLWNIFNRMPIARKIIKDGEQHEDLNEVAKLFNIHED
UniProt O95831, 102-613, stated change not applied: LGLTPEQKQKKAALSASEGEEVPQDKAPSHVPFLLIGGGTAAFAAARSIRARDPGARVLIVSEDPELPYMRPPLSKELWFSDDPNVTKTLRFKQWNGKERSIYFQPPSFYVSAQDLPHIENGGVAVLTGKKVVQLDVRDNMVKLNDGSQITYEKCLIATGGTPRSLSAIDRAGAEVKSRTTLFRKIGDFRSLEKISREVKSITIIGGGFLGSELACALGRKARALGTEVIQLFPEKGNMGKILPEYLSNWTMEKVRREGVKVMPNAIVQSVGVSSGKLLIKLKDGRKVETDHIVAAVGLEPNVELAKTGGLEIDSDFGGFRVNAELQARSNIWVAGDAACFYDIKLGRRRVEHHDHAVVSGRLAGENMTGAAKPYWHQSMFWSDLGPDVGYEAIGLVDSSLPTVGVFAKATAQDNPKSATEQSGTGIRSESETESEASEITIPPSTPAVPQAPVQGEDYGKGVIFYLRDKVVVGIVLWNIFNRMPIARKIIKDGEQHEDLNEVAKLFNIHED

The exact form of at least one protein or probe is not confirmed.

Broadly, the Kd is the constant that tells how readily two partners part at equilibrium.

Test in all cases: ITC
Details in all cases: oxidized hAIF, no NADH; ITC: 50 mM potassium phosphate, pH 7.4; ~10 uM hAIF titrated with dsDNA; 25 C per Methods and Fig S7, but 15 C for DNA per Fig S8; recombinant protein; residues 102-613

Data set [1] deals with hAIFΔ1-101 W196A (oxidized) (Homo sapiens) (UniProt O95831).
The target in data set [2] is hAIFΔ1-101 W196Y (oxidized) (Homo sapiens) (UniProt O95831).
Data set [3] deals with hAIFΔ1-101 WT (oxidized) (Homo sapiens) (UniProt O95831).

On to “GGTTAGTTATGCGCG (double strand) [15-bp dsDNA]”, for which the Kd in data set [1] amounted to 5.8 µM; in data set [2], 6.9 µM; in data set [3], 1.6 µM.
